Laboratory results as given in patent US9198422B2, “Pesticidal pyrazole compounds” (BASF SE, priority 2011, dated 2015).
Some results were stated once for a whole list of compounds, not compound by compound.

Assays:
Format in all cases: in vivo
[1] = system: Megoura viciae; assay: B.4 Vetch aphid bean leaf disk microtiter test; conditions: 2500 ppm; 6 days
Description: B.4 Vetch Aphid (Megoura viciae)
The active compounds were formulated in 3:1 (vol:vol) water:DMSO with different concentrations of formulated compounds.
Bean leaf disks were placed into microtiterplates filled with 0.8% agar-agar and 2.5 ppm OPUS™. The leaf disks were sprayed with 2.5 μl of the test solution and 5 to 8 adult aphids were placed into the microtiter plates which were then closed and kept at 23±1° C. and 50±5% relative humidity under fluorescent light for 6 days. Mortality was assessed on the basis of vital, reproduced aphids. Aphid mortality and fecundity was then visually assessed.

[2] = system: Aphis gossypii; assay: B.2 Cotton aphid, mixed life stages, spray test on cotton plants; conditions: 10 ppm; after 5 days
Description: B.2 Cotton Aphid (Aphis gossypii, Mixed Life Stages)
(§1) The active compounds were formulated in cyclohexanone as a 10,000 ppm solution supplied in 1.3 ml ABgene® tubes. These tubes were inserted into an automated electrostatic sprayer equipped with an atomizing nozzle and they served as stock solutions for which lower dilutions were made in 1:1 (vol:vol) water:aceton. A nonionic surfactant (Kinetic®) was included in the solution at a volume of 0.01% (v/v).
Cotton plants at the cotyledon stage were infested with aphids prior to treatment by placing a heavily infested leaf from the main aphid colony on top of each cotyledon. Aphids were allowed to transfer overnight to accomplish an infestation of 80-100 aphids per plant and the host leaf was removed. The infested plants were then sprayed by an automated electrostatic plant sprayer equipped with an atomizing spray nozzle. The plants were dried in the sprayer fume hood, removed from the sprayer, and then maintained in a growth room under fluorescent lighting in a 24-hr photoperiod at 25° C. and 20-40% relative humidity. Aphid mortality on the treated plants, relative to mortality on untreated control plants, was determined after 5 days.

[3] = system: Aphis craccivora; assay: B.1 Cowpea aphid spray test on potted cowpea plants; conditions: 500 ppm; population reduction assessed after 24, 72 and 120 hours
Description: If not otherwise specified the test solutions were prepared as follows:
The active compound was dissolved at the desired concentration in a mixture of 1:1 (vol:vol) distilled water:aceton. The test solution was prepared at the day of use and in general at concentrations of ppm (wt/vol).
B.1 Cowpea Aphid (Aphis craccivora)
Potted cowpea plants colonized with 100-150 aphids of various stages were sprayed after the pest population had been recorded. Population reduction was assessed after 24, 72, and 120 hours.

[4] = system: Myzus persicae; assay: B.5 Green peach aphid spray test on bell pepper plants; conditions: 10 ppm; after 5 days
Description: B.5 Green Peach Aphid (Myzus persicae)
as §1
Bell pepper plants at the first true-leaf stage were infested prior to treatment by placing heavily infested leaves from the main colony on top of the treatment plants. Aphids were allowed to transfer overnight to accomplish an infestation of 30-50 aphids per plant and the host leaves were removed. The infested plants were then sprayed by an automated electrostatic plant sprayer equipped with an atomizing spray nozzle. The plants were dried in the sprayer fume hood, removed, and then maintained in a growth room under fluorescent lighting in a 24 hour photoperiod at 25° C. and 20-40% relative humidity. Aphid mortality on the treated plants, relative to mortality on untreated control plants, was determined after 5 days.

Measured: mortality in comparison with untreated controls

Cc1c(C(=O)N(C)c2ccnnc2)cnn1C(C)C#N (racemic) [I-36]
at least 75%: all assays above

Cc1c(C(=O)N(C)c2cccnc2)cnn1C(C)Cc1ccccc1 (centres unmarked) [I-117]
at least 75%: all assays above

Cc1c(C(=O)N(C)c2ccnnc2)cnn1C(C)CC#N (centres unmarked) [I-75]
at least 75%: all assays above

COCCC(C)n1ncc(C(=O)N(C)c2ccnnc2)c1C (centres unmarked) [I-134]
at least 75%: all assays above

Cc1c(C(=O)N(C)c2cccnc2)cnn1C(C)c1cccnc1 (centres unmarked) [I-150]
at least 75%: [2] | [3] | [4]

CCN(C(=O)c1cnn(C(C)Cc2ccc(Cl)nc2)c1C)c1ccnnc1 (centres unmarked) [I-195]
at least 75%: all assays above

CCOC(=O)C(C)n1ncc(C(=O)N(CC)c2ccnnc2)c1C (centres unmarked) [I-271]
at least 75%: all assays above

Cc1c(C(=O)N(C)c2cccnc2)cnn1C(C)C(C)F (single isomer, unassigned) [I-185]
at least 75%: [2] | [4]

Cc1c(C(=O)Nc2ccnnc2)cnn1C(C)(C)C(F)(F)F [I-80]
at least 75%: all assays above

Cc1c(C(=O)Nc2cccnc2)cnn1C(C)c1cccnc1 (centres unmarked) [I-151]
at least 75%: [2] | [3] | [4]

CCN(C(=O)c1cnn(C(C)(C)C(=O)OC)c1C)c1ccnnc1 [I-174]
at least 75%: all assays above

CCN(C(=S)c1cnn(C(C)C(F)(F)F)c1C)c1cccnc1 (centres unmarked) [I-64]
at least 75%: all assays above

CCOCN(C(=O)c1cnn(C2(C(F)(F)F)CCCCC2)c1C)c1ccnnc1 [I-112]
at least 75%: all assays above

Cc1c(C(=O)N(C)c2ccnnc2)cnn1C(C)C(F)F (centres unmarked) [I-200]
at least 75%: [2] | [3] | [4]

CNC(=O)C(C)n1ncc(C(=O)Nc2cccnc2)c1C (centres unmarked) [I-302]
at least 75%: [2] | [3] | [4]

CCN(C(=O)c1cnn(C(C)Cc2ccccc2)c1C)c1ccnnc1 (centres unmarked) [I-121]
at least 75%: all assays above

Cc1c(C(=O)N(C)c2ccnnc2)cnn1C(C)CC(C)C (centres unmarked) [I-265]
at least 75%: [2] | [3] | [4]

Cc1c(C(=O)Nc2cccnc2)cnn1C(C)c1ccccc1 (centres unmarked) [I-170]
at least 75%: [2] | [3] | [4]

Cc1c(C(=O)Nc2ccnnc2)cnn1C1(C(F)(F)F)CCCCC1 [I-114]
at least 75%: all assays above

Cc1c(C(=O)N(C)c2cccnc2)cnn1C(C)Cc1ccc(Cl)nc1 (racemic) [I-197]
at least 75%: all assays above

Cc1c(C(=O)Nc2ccnnc2)cnn1C1CC1 [I-1]
at least 75%: all assays above

CCN(C(=O)c1cnn(C(C2CC2)C(F)(F)F)c1C)c1cccnc1 (centres unmarked) [I-290]
at least 75%: [2] | [3] | [4]

CCC(CC)n1ncc(C(=O)N(C)c2cccnc2)c1C [I-51]
at least 75%: [1] | [2] | [3]

Cc1c(C(=O)N(C)c2ccnnc2)cnn1C(C)c1cccnc1 (centres unmarked) [I-147]
at least 75%: [2] | [3] | [4]

Cc1c(C(=O)Nc2cccnc2)cnn1C(C)C1(S(C)(=O)=O)CC1 (centres unmarked) [I-307]
at least 75%: all assays above

Cc1c(C(=O)Nc2ccnnc2)cnn1C(C)Cc1ccccc1 (centres unmarked) [I-119]
at least 75%: [1] | [2] | [3]

CCN(C(=O)c1cnn(C2(C(F)(F)F)CCOCC2)c1C)c1cccnc1.O=C(O)C(F)(F)F [I-166]
at least 75%: [1] | [2] | [3]

CCN(C(=O)c1cnn(C2CS(=O)(=O)C2)c1C)c1cccnc1 [I-212]
at least 75%: [2] | [3] | [4]

COCC(C)(C)n1ncc(C(=O)N(C)c2ccnnc2)c1C [I-26]
at least 75%: [1] | [2] | [3]

Cc1c(C(=O)N(C)c2cccnc2)cnn1C1CS(=O)(=O)C1 [I-211]
at least 75%: [2] | [3] | [4]

CCOC(=O)CC(C)n1ncc(C(=O)N(C)c2ccnnc2)c1C (racemic) [I-233]
at least 75%: [1] | [2] | [3]

Cc1c(C(=O)N(C)c2cccnc2)cnn1C(C)c1ccccn1 (racemic) [I-192]
at least 75%: [2] | [3] | [4]
